Reference: the supplement of paper PMC8728848
The list shows a part of the results.

Columns and labels:
Assay in all cases: glycan array binding signal (z-score within array); higher = stronger binding
Conditions in all cases: glycan notation: IUPAC condensed, linker removed
[1] = target: Fuc(a1-3)[Gal3S(b1-4)]GlcNAc6S
How it was run: (§1)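 Glycan array data were curated from 3228 arrays in the Consortium for Functional Glycomics database and kept only where the protein sequence was available. Glycan names were converted to IUPAC-condensed notation, and columns mapping to the same glycan were averaged. The binding signal is a within-array Z-score, averaged across arrays of the same protein sequence at different concentrations or buffers and across linkers. Negative Z-scores can be read as non-binding.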

[2] = target: Fuc(a1-3)[GalNAc(b1-4)]GlcNAc
How it was run: as §1

[3] = target: Fuc(a1-3)[GalNAc(b1-4)]GlcNAc6S
How it was run: as §1

[4] = target: Fuc(a1-4)GlcNAc
How it was run: as §1

[5] = target: Fuc(b1-3)GlcNAc
How it was run: as §1

[6] = target: Gal(a1-2)Gal
How it was run: as §1

[7] = target: Gal(a1-3)Gal
How it was run: as §1

[8] = target: Gal(a1-3)Gal(b1-3)GlcNAc
How it was run: as §1

[9] = target: Gal(a1-3)Gal(b1-3)GlcNAc(b1-2)Man
How it was run: as §1

[10] = target: Gal(a1-3)Gal(b1-3)GlcNAc(b1-2)Man(a1-3)[Gal(a1-3)Gal(b1-3)GlcNAc(b1-2)Man(a1-6)]Man(b1-4)GlcNAc(b1-4)GlcNAc
How it was run: as §1

[11] = target: Gal(a1-3)Gal(b1-3)GlcNAc(b1-3)GalNAc
How it was run: as §1

[12] = target: Gal(a1-3)Gal(b1-3)GlcNAc(b1-6)GalNAc
How it was run: as §1

[13] = target: Gal(a1-3)Gal(b1-3)[Fuc(a1-4)]GlcNAc(b1-2)Man(a1-3)[Gal(a1-3)Gal(b1-3)[Fuc(a1-4)]GlcNAc(b1-2)Man(a1-6)]Man(b1-4)GlcNAc(b1-4)GlcNAc
How it was run: as §1

[14] = target: Gal(a1-3)Gal(b1-4)Glc
How it was run: as §1

[15] = target: Gal(a1-3)Gal(b1-4)GlcNAc
How it was run: as §1

[16] = target: Gal(a1-3)Gal(b1-4)GlcNAc(b1-2)Man
How it was run: as §1

[17] = target: Gal(a1-3)Gal(b1-4)GlcNAc(b1-2)Man(a1-3)[Gal(a1-3)Gal(b1-4)GlcNAc(b1-2)Man(a1-6)]Man(b1-4)GlcNAc(b1-4)GlcNAc
How it was run: as §1

[18] = target: Gal(a1-3)Gal(b1-4)GlcNAc(b1-3)GalNAc
How it was run: as §1

[19] = target: Gal(a1-3)Gal(b1-4)GlcNAc(b1-6)GalNAc
How it was run: as §1

[20] = target: Gal(a1-3)Gal(b1-4)[Fuc(a1-3)]GlcNAc
How it was run: as §1

[21] = target: Gal(a1-3)Gal(b1-4)[Fuc(a1-3)]GlcNAc(b1-2)Man(a1-3)[Gal(a1-3)Gal(b1-4)[Fuc(a1-3)]GlcNAc(b1-2)Man(a1-6)]Man(b1-4)GlcNAc(b1-4)GlcNAc
How it was run: as §1

[22] = target: Gal(a1-3)GalNAc
How it was run: as §1

[23] = target: Gal(a1-3)[Gal(a1-4)]Gal(b1-4)GlcNAc
How it was run: as §1

[24] = target: Gal(a1-4)Gal(b1-3)GlcNAc(b1-2)Man(a1-3)[Gal(a1-4)Gal(b1-3)GlcNAc(b1-2)Man(a1-6)]Man(b1-4)GlcNAc(b1-4)GlcNAc
How it was run: as §1

[25] = target: Gal(a1-4)Gal(b1-4)Glc
How it was run: as §1

[26] = target: Gal(a1-4)Gal(b1-4)GlcNAc
How it was run: as §1

[27] = target: Gal(a1-4)Gal(b1-4)GlcNAc(b1-2)Man(a1-3)[Gal(a1-4)Gal(b1-4)GlcNAc(b1-2)Man(a1-6)]Man(b1-4)GlcNAc(b1-4)GlcNAc
How it was run: as §1

[28] = target: Gal(a1-4)Gal(b1-4)GlcNAc(b1-3)Gal(b1-4)Glc
How it was run: as §1

[29] = target: Gal(a1-4)GlcNAc
How it was run: as §1

[30] = target: Gal(a1-6)Glc
How it was run: as §1

[31] = target: Gal(b1-2)Gal
How it was run: as §1

[32] = target: Gal(b1-3)Gal
How it was run: as §1

[33] = target: Gal(b1-3)Gal(b1-4)GlcNAc
How it was run: as §1

[34] = target: Gal(b1-3)GalNAc
How it was run: as §1

[35] = target: Gal(b1-3)GalNAc(a1-3)[Fuc(a1-2)]Gal(b1-4)Glc
How it was run: as §1

[36] = target: Gal(b1-3)GalNAc(a1-3)[Fuc(a1-2)]Gal(b1-4)GlcNAc
How it was run: as §1

[37] = target: Gal(b1-3)GalNAc(b1-3)Gal
How it was run: as §1

[38] = target: Gal(b1-3)GalNAc(b1-3)Gal(a1-4)Gal(b1-4)Glc
How it was run: as §1

[39] = target: Gal(b1-3)GalNAc(b1-4)Gal(b1-4)Glc
How it was run: as §1

[40] = target: Gal(b1-3)GalNAc(b1-4)[Neu5Ac(a2-3)]Gal(b1-4)Glc
How it was run: as §1

[41] = target: Gal(b1-3)GlcNAc
How it was run: as §1

[42] = target: Gal(b1-3)GlcNAc(a1-3)Gal(b1-4)GlcNAc
How it was run: as §1

[43] = target: Gal(b1-3)GlcNAc(a1-6)Gal(b1-4)GlcNAc
How it was run: as §1

[44] = target: Gal(b1-3)GlcNAc(b1-2)Man
How it was run: as §1

[45] = target: Gal(b1-3)GlcNAc(b1-2)Man(a1-3)[Gal(b1-3)GlcNAc(b1-2)Man(a1-6)]Man(b1-4)GlcNAc(b1-4)GlcNAc
How it was run: as §1

B1: SJCP3842 (Schistosoma japonicum) (protein)
chain: MFKMRIINLVNISTVLLLINLLQTKSRLVGKENGFMLTVSIYGAQLSDKMTSVPVSWTIDYEDPEKSAFKKLVTDSCDTFSEYVKSQIPKGSVDGQCTSHIFQRPGSGSGVSISLTLSFIYVDVTQPDTVALKTELEKHFANFVTIHSHKITQAQFRINQKAIVIPTGDKDAIDGSKWKIIAIIALVALAIVVIGGFIYICVK
glycan array binding signal (z-score) [1]: 0.041
glycan array binding signal (z-score) [2]: 1.98
glycan array binding signal (z-score) [3]: -0.719
glycan array binding signal (z-score) [4]: 4.44
glycan array binding signal (z-score) [5]: 0.984
glycan array binding signal (z-score) [6]: -0.873
glycan array binding signal (z-score) [7]: 0.544
glycan array binding signal (z-score) [8]: -1.36
glycan array binding signal (z-score) [9]: -0.278
glycan array binding signal (z-score) [10]: 3.31
glycan array binding signal (z-score) [11]: 0.153
glycan array binding signal (z-score) [12]: 1.28
glycan array binding signal (z-score) [13]: 2.45
glycan array binding signal (z-score) [14]: -0.327
glycan array binding signal (z-score) [15]: -0.944
glycan array binding signal (z-score) [16]: -1.09
glycan array binding signal (z-score) [17]: -0.76
glycan array binding signal (z-score) [18]: -0.487
glycan array binding signal (z-score) [19]: -0.327
glycan array binding signal (z-score) [20]: 0.63
glycan array binding signal (z-score) [21]: -0.183
glycan array binding signal (z-score) [22]: -1
glycan array binding signal (z-score) [23]: 0.71
glycan array binding signal (z-score) [24]: -0.112
glycan array binding signal (z-score) [25]: -1.04
glycan array binding signal (z-score) [26]: 0.115
glycan array binding signal (z-score) [27]: 2.55
glycan array binding signal (z-score) [28]: -0.72
glycan array binding signal (z-score) [29]: -1.21
glycan array binding signal (z-score) [30]: -1.59
glycan array binding signal (z-score) [31]: -1.3
glycan array binding signal (z-score) [32]: 1.3
glycan array binding signal (z-score) [33]: 1.57
glycan array binding signal (z-score) [34]: 0.541
glycan array binding signal (z-score) [35]: 0.236
glycan array binding signal (z-score) [36]: -0.185
glycan array binding signal (z-score) [37]: -0.234
glycan array binding signal (z-score) [38]: 0.177
glycan array binding signal (z-score) [39]: 0.695
glycan array binding signal (z-score) [40]: 0.896
glycan array binding signal (z-score) [41]: -0.593
glycan array binding signal (z-score) [42]: -0.424
glycan array binding signal (z-score) [43]: 0.616
glycan array binding signal (z-score) [44]: 1.47
glycan array binding signal (z-score) [45]: 0.14
